# The supplement of paper PMC12067093, “Discovery and optimisation of a covalent ligand for TRIM25 and its application to targeted protein ubiquitination” (Chemical Science, 2025)
# Amino acid sequences for entries named in this document (tags omitted). A change or cut given only in a name is not applied to a line headed by its entry.
# UniProt P00558: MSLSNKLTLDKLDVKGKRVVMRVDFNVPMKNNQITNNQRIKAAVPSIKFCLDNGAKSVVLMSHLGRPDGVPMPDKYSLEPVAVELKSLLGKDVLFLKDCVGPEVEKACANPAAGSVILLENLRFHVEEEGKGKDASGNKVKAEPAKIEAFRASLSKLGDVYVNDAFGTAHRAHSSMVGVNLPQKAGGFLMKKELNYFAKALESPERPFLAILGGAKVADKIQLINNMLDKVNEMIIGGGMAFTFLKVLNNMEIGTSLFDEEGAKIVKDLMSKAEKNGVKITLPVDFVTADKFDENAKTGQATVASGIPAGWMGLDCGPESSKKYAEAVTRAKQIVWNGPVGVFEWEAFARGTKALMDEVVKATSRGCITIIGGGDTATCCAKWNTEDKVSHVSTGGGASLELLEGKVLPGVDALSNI
# UniProt O94880: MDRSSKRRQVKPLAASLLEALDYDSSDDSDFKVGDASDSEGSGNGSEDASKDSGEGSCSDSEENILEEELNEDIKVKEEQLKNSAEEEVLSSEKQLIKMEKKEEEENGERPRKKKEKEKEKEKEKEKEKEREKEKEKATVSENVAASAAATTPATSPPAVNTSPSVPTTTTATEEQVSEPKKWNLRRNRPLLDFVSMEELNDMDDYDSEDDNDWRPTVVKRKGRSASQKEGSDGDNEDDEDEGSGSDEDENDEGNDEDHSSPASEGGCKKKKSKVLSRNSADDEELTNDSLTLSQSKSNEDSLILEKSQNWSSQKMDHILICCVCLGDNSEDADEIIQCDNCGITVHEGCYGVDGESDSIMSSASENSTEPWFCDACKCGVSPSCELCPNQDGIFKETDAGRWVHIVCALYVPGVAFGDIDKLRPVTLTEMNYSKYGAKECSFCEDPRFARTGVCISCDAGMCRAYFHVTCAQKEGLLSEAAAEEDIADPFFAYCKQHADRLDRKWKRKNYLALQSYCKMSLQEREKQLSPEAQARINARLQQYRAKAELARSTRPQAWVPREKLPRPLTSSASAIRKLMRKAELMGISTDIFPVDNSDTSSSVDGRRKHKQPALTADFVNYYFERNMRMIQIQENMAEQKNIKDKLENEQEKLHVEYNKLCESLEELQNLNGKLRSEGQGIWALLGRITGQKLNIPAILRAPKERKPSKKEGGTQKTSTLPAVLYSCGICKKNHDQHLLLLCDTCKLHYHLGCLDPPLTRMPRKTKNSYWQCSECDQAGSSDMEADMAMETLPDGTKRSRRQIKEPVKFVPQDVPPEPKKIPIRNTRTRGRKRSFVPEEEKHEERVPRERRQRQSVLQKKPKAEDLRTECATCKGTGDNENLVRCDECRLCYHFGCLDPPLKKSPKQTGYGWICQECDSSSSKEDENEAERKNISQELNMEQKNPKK
# UniProt O00443: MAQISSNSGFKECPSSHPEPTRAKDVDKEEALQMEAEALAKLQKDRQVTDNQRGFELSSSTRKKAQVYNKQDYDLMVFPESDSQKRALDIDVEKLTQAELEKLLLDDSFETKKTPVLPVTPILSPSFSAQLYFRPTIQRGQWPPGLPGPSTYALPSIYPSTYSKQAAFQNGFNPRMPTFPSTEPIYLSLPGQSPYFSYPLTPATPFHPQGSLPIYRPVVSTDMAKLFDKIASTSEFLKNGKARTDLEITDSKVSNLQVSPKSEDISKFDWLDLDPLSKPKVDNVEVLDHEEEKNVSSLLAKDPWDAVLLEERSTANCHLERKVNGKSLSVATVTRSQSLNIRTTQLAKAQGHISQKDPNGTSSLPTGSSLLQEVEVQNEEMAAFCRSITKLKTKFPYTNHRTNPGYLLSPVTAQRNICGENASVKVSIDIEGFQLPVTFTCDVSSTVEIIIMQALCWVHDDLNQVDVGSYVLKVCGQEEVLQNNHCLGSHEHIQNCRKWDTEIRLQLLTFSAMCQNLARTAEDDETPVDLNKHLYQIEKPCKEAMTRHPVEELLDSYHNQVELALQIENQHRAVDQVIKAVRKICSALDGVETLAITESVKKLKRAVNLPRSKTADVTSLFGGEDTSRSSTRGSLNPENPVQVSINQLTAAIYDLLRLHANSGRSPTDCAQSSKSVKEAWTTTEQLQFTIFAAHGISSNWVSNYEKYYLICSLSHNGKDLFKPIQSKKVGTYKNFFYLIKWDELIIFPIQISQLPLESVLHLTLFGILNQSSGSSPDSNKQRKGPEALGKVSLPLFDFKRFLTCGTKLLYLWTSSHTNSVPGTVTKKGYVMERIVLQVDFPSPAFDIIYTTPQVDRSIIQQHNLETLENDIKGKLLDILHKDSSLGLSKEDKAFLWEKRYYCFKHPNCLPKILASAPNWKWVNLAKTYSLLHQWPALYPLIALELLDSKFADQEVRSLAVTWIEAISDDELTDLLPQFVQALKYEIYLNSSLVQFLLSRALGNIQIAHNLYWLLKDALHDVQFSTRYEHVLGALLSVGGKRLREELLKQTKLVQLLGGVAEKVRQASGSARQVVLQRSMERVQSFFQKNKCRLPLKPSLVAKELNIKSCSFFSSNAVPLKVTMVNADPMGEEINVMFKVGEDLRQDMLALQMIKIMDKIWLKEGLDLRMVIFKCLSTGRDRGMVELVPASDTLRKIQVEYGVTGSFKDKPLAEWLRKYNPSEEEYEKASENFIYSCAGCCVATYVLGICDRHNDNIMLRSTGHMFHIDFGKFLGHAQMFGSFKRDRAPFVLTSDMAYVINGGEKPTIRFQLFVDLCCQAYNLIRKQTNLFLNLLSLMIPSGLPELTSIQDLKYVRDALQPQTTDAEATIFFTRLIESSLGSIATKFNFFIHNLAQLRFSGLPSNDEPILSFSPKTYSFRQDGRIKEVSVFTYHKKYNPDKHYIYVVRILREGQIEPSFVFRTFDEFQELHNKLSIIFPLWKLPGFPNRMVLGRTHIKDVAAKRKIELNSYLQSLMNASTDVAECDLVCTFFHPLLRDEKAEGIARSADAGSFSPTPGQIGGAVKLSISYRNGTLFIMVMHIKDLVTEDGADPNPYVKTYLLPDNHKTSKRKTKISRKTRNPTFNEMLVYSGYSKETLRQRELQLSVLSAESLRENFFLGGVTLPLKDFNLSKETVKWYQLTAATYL
# UniProt Q13608: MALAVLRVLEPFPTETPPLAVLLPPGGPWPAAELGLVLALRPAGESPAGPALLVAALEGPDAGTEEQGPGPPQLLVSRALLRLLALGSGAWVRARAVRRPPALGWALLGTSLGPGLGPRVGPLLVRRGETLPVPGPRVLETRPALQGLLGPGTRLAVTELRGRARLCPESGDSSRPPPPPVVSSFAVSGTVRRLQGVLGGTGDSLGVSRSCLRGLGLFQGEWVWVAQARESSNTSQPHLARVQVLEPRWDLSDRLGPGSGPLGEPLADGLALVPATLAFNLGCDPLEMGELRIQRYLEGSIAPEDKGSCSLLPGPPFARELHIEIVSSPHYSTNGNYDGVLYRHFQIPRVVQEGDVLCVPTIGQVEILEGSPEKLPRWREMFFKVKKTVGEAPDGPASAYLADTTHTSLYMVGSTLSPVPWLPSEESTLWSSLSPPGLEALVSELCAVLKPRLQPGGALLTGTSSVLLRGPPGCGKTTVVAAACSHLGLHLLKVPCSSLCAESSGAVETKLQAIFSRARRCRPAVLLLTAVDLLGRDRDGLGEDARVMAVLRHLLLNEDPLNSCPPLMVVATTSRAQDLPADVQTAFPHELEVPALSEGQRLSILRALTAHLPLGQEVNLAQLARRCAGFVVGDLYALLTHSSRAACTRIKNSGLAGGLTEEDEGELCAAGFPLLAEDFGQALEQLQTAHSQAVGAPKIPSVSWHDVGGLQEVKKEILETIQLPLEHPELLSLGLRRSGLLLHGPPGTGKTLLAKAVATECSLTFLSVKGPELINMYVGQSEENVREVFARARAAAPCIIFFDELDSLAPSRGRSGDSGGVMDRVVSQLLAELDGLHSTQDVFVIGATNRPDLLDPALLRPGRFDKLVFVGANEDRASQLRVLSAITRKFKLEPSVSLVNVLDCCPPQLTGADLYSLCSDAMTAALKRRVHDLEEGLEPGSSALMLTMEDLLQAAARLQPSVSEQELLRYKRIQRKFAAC
# UniProt O43933: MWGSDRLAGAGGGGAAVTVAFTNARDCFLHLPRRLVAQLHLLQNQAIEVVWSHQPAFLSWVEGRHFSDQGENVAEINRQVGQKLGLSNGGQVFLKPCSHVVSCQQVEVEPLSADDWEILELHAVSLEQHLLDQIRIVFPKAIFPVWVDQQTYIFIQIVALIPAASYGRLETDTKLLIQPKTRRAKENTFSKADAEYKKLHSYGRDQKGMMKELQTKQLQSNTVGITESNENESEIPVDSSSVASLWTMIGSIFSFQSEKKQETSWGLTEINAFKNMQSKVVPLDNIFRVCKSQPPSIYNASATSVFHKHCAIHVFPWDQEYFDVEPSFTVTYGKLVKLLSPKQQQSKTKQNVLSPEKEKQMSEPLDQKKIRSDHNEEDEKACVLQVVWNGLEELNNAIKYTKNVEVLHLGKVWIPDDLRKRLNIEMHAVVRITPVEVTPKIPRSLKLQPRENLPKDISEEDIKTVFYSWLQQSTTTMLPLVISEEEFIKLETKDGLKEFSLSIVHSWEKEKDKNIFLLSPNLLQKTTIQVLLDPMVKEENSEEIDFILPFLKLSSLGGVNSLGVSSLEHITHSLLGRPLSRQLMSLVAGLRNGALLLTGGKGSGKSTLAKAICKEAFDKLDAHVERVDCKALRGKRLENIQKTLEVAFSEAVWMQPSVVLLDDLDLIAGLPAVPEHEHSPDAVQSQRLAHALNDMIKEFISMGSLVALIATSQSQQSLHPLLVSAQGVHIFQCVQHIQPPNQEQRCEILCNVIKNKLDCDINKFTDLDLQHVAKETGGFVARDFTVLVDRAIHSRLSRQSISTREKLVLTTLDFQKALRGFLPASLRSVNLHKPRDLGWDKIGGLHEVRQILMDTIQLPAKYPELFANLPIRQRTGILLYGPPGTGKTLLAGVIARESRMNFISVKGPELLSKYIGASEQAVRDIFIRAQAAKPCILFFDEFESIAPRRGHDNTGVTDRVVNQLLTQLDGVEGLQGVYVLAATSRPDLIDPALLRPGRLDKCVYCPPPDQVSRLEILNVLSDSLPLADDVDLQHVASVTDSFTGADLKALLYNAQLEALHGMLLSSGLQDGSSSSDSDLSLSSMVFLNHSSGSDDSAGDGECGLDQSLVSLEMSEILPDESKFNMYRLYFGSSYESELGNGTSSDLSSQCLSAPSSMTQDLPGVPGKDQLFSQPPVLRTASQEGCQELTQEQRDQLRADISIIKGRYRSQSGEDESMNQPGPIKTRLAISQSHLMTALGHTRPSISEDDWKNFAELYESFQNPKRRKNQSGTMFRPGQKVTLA
# UniProt Q9UPP1: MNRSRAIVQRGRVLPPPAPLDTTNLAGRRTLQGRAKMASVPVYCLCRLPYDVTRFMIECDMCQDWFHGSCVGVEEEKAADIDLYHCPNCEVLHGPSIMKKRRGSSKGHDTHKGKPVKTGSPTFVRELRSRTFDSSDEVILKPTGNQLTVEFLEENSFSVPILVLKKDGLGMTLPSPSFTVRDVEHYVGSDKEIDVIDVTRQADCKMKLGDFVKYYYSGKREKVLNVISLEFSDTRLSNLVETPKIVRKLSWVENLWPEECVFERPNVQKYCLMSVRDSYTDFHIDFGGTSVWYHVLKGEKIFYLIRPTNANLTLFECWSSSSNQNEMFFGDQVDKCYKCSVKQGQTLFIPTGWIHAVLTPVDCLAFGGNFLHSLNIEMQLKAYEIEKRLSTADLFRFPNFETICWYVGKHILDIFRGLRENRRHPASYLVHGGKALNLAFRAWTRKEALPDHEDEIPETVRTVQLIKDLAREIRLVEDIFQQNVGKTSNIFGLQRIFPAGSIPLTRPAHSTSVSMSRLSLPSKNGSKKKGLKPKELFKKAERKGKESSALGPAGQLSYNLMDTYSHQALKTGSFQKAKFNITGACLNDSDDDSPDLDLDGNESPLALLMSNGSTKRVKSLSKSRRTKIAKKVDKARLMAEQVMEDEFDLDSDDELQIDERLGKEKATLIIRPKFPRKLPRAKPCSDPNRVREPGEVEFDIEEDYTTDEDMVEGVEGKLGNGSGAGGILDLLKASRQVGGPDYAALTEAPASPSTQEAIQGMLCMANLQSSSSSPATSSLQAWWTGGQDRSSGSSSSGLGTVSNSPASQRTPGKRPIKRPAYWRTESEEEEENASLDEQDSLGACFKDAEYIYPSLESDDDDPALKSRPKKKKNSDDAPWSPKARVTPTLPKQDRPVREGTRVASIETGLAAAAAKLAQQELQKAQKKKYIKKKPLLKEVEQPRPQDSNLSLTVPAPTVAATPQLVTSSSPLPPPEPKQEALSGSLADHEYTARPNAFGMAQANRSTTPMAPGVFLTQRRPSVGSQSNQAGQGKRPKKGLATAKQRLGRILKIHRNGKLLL
# Some of the results follow.
# Compound: CC1Cc2ccccc2N1C(=O)C1CCCN(C1)C(=O)CCl (mixture of isomers) [TRIM25 ligand 11 (diastereomer mixture)]
# Experiment: probe-labelled cysteine peptide fold change vs DMSO (competition) (log2 fold change); higher = less target engagement (more negative = stronger competition)
# Details: THP-1, incubation time: 4 h
# 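Also: competitive chemoproteomic profiling in live THP-1 cells with an iodoacetamide desthiobiotin (IA-DTB) probe, comparing probe-labelled peptide intensities in compound-treated cells against DMSO-treated controls.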
Target,probe-labelled cysteine peptide fold change (10 µM),probe-labelled cysteine peptide fold change (50 µM)
PGK1_P00558_367_GCITIIGGGDTATCCAK (UniProt P00558),0.103,0.0351
PHF14_O94880_874_AEDLRTECATCK (UniProt O94880),-0.0633,-0.131
PIK3C2A_O00443_13_ECPSSHPEPTR (UniProt O00443),0.0858,-0.104
PEX6_Q13608_474_GPPGCGK (UniProt Q13608),0.0711,0.167
PEX1_O43933_310_HCAIHVFPWDQEYFDVEPSFTVTYGK (UniProt O43933),-0.244,0.184
PHF8_Q9UPP1_89_AADIDLYHCPNCEVLHGPSIMK (UniProt Q9UPP1),0.0137,-0.007
PECAM1_P16284_572_EQEGEYYCTAFNR (UniProt P16284),-0.0892,-0.146
